# Values from PubChem BioAssay AID1508597 (Cure First, 2020).
# Purpose: 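Survival screen with siRNA in ovarian cancer cells derived from patients, with or without rucaparib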 (primary screen)
# System: human ovarian carcinoma lines grown from tumours: OCI-P5x (papillary serous) and OCI-C5x (clear cell)
# Reagent: siRNA pool against human genes, 1.25 pmol siRNA per well
# Timing: 72 h or 96 h, depending on the cell culture
# Conditions: rucaparib 20 µM (about IC30) or vehicle, present until read-out
# Read-out: 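Luminescent ATP-based viability assay read 72 or 96 h after transfection, depending on culture, given as normalised percent viability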
# Direction: viability, normalised: higher = more viable cells remaining
# Hit rule: 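a well counts as a hit if its normalised viability is under 80 percent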
# Calls: active = viability under 80%; inactive = viability 80% or more
# Here is an unselected part of about 2,100 deposited reagents. 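Calls flag viability under 80% in either arm, not effects specific to rucaparib; the reference for percent is not stated.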 Unmarked entries are inactive. Not stated in the record: the 100% reference.
target gene,rucaparib or vehicle,cell line,technical replicate,"viability, normalised (%)"
"MYC (MYC proto-oncogene, bHLH transcription factor)",Rucaparib,OCI-C5x (clear cell),1,42 (active)
"MYC (MYC proto-oncogene, bHLH transcription factor)",Rucaparib,OCI-C5x (clear cell),2,31.7 (active)
"MYC (MYC proto-oncogene, bHLH transcription factor)",Rucaparib,OCI-C5x (clear cell),3,42.5 (active)
"MYC (MYC proto-oncogene, bHLH transcription factor)",Rucaparib,OCI-P5x (serous),1,40.8 (active)
"MYC (MYC proto-oncogene, bHLH transcription factor)",Rucaparib,OCI-P5x (serous),2,46 (active)
"MYC (MYC proto-oncogene, bHLH transcription factor)",Rucaparib,OCI-P5x (serous),3,52.8 (active)
"MYC (MYC proto-oncogene, bHLH transcription factor)",Vehicle,OCI-C5x (clear cell),1,30.1 (active)
"MYC (MYC proto-oncogene, bHLH transcription factor)",Vehicle,OCI-C5x (clear cell),2,30.3 (active)
"MYC (MYC proto-oncogene, bHLH transcription factor)",Vehicle,OCI-C5x (clear cell),3,24.8 (active)
"MYC (MYC proto-oncogene, bHLH transcription factor)",Vehicle,OCI-P5x (serous),1,43.3 (active)
"MYC (MYC proto-oncogene, bHLH transcription factor)",Vehicle,OCI-P5x (serous),2,45.6 (active)
"MYC (MYC proto-oncogene, bHLH transcription factor)",Vehicle,OCI-P5x (serous),3,51.3 (active)
MLLT1 (MLLT1 super elongation complex subunit),Rucaparib,OCI-C5x (clear cell),1,57.4 (active)
MLLT1 (MLLT1 super elongation complex subunit),Rucaparib,OCI-C5x (clear cell),2,71 (active)
MLLT1 (MLLT1 super elongation complex subunit),Rucaparib,OCI-C5x (clear cell),3,67.8 (active)
MLLT1 (MLLT1 super elongation complex subunit),Rucaparib,OCI-P5x (serous),1,126
MLLT1 (MLLT1 super elongation complex subunit),Rucaparib,OCI-P5x (serous),2,114
MLLT1 (MLLT1 super elongation complex subunit),Rucaparib,OCI-P5x (serous),3,122
MLLT1 (MLLT1 super elongation complex subunit),Vehicle,OCI-C5x (clear cell),1,63.2 (active)
MLLT1 (MLLT1 super elongation complex subunit),Vehicle,OCI-C5x (clear cell),2,59.7 (active)
MLLT1 (MLLT1 super elongation complex subunit),Vehicle,OCI-C5x (clear cell),3,55.7 (active)
MLLT1 (MLLT1 super elongation complex subunit),Vehicle,OCI-P5x (serous),1,107
MLLT1 (MLLT1 super elongation complex subunit),Vehicle,OCI-P5x (serous),2,111
MLLT1 (MLLT1 super elongation complex subunit),Vehicle,OCI-P5x (serous),3,94.3

5 successive entries from above:
target gene,rucaparib or vehicle,cell line,technical replicate,"viability, normalised (%)"
"MYC (MYC proto-oncogene, bHLH transcription factor)",Rucaparib,OCI-P5x (serous),3,52.8 (active)
"MYC (MYC proto-oncogene, bHLH transcription factor)",Vehicle,OCI-C5x (clear cell),1,30.1 (active)
"MYC (MYC proto-oncogene, bHLH transcription factor)",Vehicle,OCI-C5x (clear cell),2,30.3 (active)
"MYC (MYC proto-oncogene, bHLH transcription factor)",Vehicle,OCI-C5x (clear cell),3,24.8 (active)
"MYC (MYC proto-oncogene, bHLH transcription factor)",Vehicle,OCI-P5x (serous),1,43.3 (active)

The list goes on.
target gene,rucaparib or vehicle,cell line,technical replicate,"viability, normalised (%)"
PRPS1 (phosphoribosyl pyrophosphate synthetase 1),Rucaparib,OCI-C5x (clear cell),1,41.9 (active)
PRPS1 (phosphoribosyl pyrophosphate synthetase 1),Rucaparib,OCI-C5x (clear cell),2,50.6 (active)
PRPS1 (phosphoribosyl pyrophosphate synthetase 1),Rucaparib,OCI-C5x (clear cell),3,39.6 (active)
PRPS1 (phosphoribosyl pyrophosphate synthetase 1),Rucaparib,OCI-P5x (serous),1,86.7
PRPS1 (phosphoribosyl pyrophosphate synthetase 1),Rucaparib,OCI-P5x (serous),2,85
PRPS1 (phosphoribosyl pyrophosphate synthetase 1),Rucaparib,OCI-P5x (serous),3,102
PRPS1 (phosphoribosyl pyrophosphate synthetase 1),Vehicle,OCI-C5x (clear cell),1,74.1 (active)
PRPS1 (phosphoribosyl pyrophosphate synthetase 1),Vehicle,OCI-C5x (clear cell),2,55.3 (active)
PRPS1 (phosphoribosyl pyrophosphate synthetase 1),Vehicle,OCI-C5x (clear cell),3,46.6 (active)
PRPS1 (phosphoribosyl pyrophosphate synthetase 1),Vehicle,OCI-P5x (serous),1,86.9
PRPS1 (phosphoribosyl pyrophosphate synthetase 1),Vehicle,OCI-P5x (serous),2,96.6
PRPS1 (phosphoribosyl pyrophosphate synthetase 1),Vehicle,OCI-P5x (serous),3,64.1 (active)
BMP2 (bone morphogenetic protein 2),Rucaparib,OCI-C5x (clear cell),1,45.8 (active)
BMP2 (bone morphogenetic protein 2),Rucaparib,OCI-C5x (clear cell),2,40.3 (active)
BMP2 (bone morphogenetic protein 2),Rucaparib,OCI-C5x (clear cell),3,42.4 (active)
BMP2 (bone morphogenetic protein 2),Rucaparib,OCI-P5x (serous),1,48.4 (active)
BMP2 (bone morphogenetic protein 2),Rucaparib,OCI-P5x (serous),2,66.4 (active)
BMP2 (bone morphogenetic protein 2),Rucaparib,OCI-P5x (serous),3,58.4 (active)
BMP2 (bone morphogenetic protein 2),Vehicle,OCI-C5x (clear cell),1,27.4 (active)
BMP2 (bone morphogenetic protein 2),Vehicle,OCI-C5x (clear cell),2,39.2 (active)
BMP2 (bone morphogenetic protein 2),Vehicle,OCI-C5x (clear cell),3,32.9 (active)
BMP2 (bone morphogenetic protein 2),Vehicle,OCI-P5x (serous),1,50.4 (active)
BMP2 (bone morphogenetic protein 2),Vehicle,OCI-P5x (serous),2,61.1 (active)
BMP2 (bone morphogenetic protein 2),Vehicle,OCI-P5x (serous),3,64.1 (active)
GGCT (gamma-glutamylcyclotransferase),Rucaparib,OCI-C5x (clear cell),1,51.9 (active)
GGCT (gamma-glutamylcyclotransferase),Rucaparib,OCI-C5x (clear cell),2,42.5 (active)
GGCT (gamma-glutamylcyclotransferase),Rucaparib,OCI-C5x (clear cell),3,41.3 (active)
GGCT (gamma-glutamylcyclotransferase),Rucaparib,OCI-P5x (serous),1,61 (active)
GGCT (gamma-glutamylcyclotransferase),Rucaparib,OCI-P5x (serous),2,64.6 (active)
GGCT (gamma-glutamylcyclotransferase),Rucaparib,OCI-P5x (serous),3,74.8 (active)
GGCT (gamma-glutamylcyclotransferase),Vehicle,OCI-C5x (clear cell),1,63.7 (active)
GGCT (gamma-glutamylcyclotransferase),Vehicle,OCI-C5x (clear cell),2,66.2 (active)
GGCT (gamma-glutamylcyclotransferase),Vehicle,OCI-C5x (clear cell),3,59.3 (active)
GGCT (gamma-glutamylcyclotransferase),Vehicle,OCI-P5x (serous),1,71.6 (active)
GGCT (gamma-glutamylcyclotransferase),Vehicle,OCI-P5x (serous),2,64.9 (active)
GGCT (gamma-glutamylcyclotransferase),Vehicle,OCI-P5x (serous),3,73 (active)
